This passage reports binding results from publication PMC8322311.

Protein sequences, listed by entry. Tags and fused reporters are not part of them. Lines headed by an entry give the natural chain unless they say otherwise; changes in a name come on top. Residues count along the entry.
UniProt Q9H5Y7, residues 27-841: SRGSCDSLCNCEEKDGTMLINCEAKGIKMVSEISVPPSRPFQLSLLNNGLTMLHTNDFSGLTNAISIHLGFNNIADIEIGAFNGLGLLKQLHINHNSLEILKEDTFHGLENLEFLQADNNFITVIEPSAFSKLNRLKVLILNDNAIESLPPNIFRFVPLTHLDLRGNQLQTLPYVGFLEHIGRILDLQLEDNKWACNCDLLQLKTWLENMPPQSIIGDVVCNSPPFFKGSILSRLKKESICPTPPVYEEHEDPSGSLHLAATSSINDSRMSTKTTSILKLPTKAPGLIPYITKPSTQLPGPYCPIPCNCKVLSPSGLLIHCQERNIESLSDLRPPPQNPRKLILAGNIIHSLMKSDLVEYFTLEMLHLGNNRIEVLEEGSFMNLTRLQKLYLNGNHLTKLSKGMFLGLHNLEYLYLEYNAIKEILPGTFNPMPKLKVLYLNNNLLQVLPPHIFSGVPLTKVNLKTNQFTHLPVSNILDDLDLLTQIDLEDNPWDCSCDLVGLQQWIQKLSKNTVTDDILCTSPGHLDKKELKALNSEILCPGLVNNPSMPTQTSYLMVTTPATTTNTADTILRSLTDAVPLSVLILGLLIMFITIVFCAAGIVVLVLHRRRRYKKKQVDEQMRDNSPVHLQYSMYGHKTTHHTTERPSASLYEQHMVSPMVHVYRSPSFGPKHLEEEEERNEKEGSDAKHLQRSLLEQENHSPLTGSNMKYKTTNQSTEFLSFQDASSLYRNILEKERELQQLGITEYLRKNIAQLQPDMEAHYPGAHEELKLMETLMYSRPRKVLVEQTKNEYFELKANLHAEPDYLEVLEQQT
UniProt Q15465: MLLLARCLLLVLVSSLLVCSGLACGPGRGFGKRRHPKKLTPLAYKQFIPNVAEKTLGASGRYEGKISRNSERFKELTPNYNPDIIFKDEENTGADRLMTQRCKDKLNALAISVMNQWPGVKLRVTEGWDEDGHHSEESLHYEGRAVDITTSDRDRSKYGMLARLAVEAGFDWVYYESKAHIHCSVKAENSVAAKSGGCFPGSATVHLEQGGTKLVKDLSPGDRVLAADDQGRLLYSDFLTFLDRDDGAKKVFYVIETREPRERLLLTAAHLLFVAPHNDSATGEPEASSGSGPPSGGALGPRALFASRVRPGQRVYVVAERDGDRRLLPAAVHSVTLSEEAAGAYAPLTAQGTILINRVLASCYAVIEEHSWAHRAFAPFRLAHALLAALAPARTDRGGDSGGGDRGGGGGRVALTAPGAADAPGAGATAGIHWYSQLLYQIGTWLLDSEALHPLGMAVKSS

No constants are given. Whether binding was seen depends on the method and setting. For some of these results: Binding can be weak; no strength is given. For some of these results: Binding seen in cells or lysates may run through a third protein. For some of these results: Sequences can lack the tags named with a protein.

Assay [1] has as its target SLITRK6 (UniProt Q9H5Y7). Briefly: co-IP; immunoprecipitation of SLITRK family members with SHH (Supplementary Fig. 3b, c); cell line not given.
For assay [2], the target named is T1, SLITRK1 (UniProt Q96PX8).
T1 sequence: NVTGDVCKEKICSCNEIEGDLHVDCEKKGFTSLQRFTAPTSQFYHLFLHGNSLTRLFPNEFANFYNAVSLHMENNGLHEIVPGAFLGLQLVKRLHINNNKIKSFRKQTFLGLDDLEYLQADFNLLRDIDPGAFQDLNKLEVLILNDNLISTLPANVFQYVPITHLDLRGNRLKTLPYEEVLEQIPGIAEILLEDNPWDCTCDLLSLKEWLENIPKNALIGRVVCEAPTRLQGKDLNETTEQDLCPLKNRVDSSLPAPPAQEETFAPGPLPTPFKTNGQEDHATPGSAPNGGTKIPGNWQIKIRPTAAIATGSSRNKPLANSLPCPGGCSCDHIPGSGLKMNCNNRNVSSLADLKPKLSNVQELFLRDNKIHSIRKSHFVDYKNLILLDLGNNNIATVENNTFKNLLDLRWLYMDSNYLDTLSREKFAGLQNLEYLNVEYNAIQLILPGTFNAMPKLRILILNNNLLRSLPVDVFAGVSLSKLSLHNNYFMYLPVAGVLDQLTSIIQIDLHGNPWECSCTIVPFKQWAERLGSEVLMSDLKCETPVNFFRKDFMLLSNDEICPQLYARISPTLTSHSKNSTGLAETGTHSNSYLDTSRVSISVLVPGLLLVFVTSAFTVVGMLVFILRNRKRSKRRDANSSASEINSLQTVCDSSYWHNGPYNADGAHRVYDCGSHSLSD
The description is as above.

Assay [3] concerns the target T2, Flag-SLITRK5 (UniProt O94991).
T2 sequence: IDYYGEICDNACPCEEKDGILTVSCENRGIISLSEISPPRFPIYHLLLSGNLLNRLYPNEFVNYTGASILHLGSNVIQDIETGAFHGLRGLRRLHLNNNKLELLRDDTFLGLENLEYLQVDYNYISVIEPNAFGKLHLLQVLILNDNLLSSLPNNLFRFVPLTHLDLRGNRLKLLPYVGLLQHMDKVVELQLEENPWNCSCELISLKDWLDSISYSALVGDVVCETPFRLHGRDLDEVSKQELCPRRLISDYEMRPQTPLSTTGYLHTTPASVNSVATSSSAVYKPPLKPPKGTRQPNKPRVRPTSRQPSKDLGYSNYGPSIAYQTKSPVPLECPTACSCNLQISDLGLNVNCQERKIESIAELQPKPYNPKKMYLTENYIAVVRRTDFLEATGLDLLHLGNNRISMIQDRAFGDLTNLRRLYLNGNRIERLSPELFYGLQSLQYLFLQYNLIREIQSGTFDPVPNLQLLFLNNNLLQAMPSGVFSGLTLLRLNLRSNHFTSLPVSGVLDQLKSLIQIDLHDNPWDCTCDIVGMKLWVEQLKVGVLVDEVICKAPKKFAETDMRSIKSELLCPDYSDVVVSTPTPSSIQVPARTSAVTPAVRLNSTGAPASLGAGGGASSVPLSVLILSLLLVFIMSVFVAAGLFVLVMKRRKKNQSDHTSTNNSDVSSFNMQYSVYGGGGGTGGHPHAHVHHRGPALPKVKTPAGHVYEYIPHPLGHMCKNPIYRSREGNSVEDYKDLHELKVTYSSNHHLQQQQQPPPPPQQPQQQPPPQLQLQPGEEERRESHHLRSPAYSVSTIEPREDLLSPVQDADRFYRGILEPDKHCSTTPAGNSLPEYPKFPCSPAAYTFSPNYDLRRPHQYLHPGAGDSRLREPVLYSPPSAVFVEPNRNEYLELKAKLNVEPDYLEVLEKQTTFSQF
Briefly: co-IP; HEK293T cells transfected with the indicated plasmids; lysis in RIPA or TNT buffer; Flag or HA agarose; immunoblot. In general terms: In western blotting, separated proteins are transferred to a membrane and probed.

For assay [4], the target named is T3, recombinant human SLITRK5 extracellular domain fragment (human) (UniProt O94991).
T3 sequence: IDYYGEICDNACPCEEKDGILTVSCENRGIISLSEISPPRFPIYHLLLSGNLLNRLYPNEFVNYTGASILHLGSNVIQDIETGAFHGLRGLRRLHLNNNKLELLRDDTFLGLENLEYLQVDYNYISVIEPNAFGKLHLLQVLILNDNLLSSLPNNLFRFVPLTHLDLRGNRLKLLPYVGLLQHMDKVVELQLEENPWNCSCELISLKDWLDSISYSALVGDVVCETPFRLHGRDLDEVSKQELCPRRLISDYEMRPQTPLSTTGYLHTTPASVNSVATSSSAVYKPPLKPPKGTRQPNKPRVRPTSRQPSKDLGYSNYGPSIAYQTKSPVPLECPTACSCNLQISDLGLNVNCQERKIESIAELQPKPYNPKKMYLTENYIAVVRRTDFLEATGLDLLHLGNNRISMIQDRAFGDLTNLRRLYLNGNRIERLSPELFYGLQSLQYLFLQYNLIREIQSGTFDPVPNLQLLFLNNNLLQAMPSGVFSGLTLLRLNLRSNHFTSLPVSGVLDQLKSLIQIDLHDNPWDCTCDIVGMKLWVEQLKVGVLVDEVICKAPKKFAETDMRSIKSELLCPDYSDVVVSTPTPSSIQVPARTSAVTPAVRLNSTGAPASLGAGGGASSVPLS
Briefly: ELISA; hSLITRK5-ECD (2 µg/ml) coated on 96-well plates, 2 h room temperature; SHH-His added 2 h room temperature; detected with anti-His HRP; both purified. (ELISA stands for enzyme-linked immunosorbent assay.)

As to “SHH (in the co-immunoprecipitations) (from UniProt Q15465) (ligand)”, the results for the binding result in assay [1], in assay [2] and in assay [3] were “no binding”, “no binding” and “binds”, respectively.
Consider SHH-His (from UniProt Q15465) (ligand), for which, in assay [4], the binding entry is “binds”.
